These results are taken from paper PMC4426952.

The chains behind the UniProt entries cited, without tags or fusion partners. Residues count along the entry.
UniProt P40763: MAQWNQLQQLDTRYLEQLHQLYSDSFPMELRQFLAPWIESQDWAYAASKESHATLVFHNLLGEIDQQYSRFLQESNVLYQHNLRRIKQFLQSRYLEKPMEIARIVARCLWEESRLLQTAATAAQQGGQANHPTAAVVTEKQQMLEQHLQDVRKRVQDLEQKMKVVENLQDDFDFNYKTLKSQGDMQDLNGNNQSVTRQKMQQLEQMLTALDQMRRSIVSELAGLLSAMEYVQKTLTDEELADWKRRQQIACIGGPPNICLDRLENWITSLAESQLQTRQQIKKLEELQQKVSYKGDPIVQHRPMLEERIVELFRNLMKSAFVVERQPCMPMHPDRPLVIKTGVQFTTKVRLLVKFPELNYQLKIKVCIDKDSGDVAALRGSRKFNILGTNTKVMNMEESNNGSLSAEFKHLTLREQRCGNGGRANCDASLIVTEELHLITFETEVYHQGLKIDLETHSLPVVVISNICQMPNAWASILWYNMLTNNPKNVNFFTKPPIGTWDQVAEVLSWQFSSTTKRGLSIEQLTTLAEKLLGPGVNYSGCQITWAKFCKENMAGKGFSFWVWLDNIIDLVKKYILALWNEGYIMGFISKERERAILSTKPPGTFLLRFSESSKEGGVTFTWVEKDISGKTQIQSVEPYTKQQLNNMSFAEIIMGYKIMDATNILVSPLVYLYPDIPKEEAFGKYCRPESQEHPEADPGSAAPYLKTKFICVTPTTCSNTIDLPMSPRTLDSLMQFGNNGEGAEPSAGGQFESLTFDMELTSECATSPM
UniProt P28799, residues 18-593: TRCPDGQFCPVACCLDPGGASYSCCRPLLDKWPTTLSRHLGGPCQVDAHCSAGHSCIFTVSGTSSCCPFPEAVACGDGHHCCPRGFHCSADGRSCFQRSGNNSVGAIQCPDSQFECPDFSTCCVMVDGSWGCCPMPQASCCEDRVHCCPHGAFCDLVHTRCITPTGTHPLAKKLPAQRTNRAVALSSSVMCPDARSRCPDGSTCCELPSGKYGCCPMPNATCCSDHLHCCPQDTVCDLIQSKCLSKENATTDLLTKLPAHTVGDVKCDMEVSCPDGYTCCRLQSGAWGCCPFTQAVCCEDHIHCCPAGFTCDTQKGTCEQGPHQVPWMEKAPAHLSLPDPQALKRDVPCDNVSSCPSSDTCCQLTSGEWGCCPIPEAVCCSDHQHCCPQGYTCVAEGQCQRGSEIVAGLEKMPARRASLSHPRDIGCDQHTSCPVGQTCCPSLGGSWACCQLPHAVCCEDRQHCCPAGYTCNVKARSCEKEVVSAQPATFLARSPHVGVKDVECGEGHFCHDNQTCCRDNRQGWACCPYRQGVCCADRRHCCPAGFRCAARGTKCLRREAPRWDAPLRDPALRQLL

Results are given in words; binding and its absence hold for the method and conditions named. Binding seen in cells or lysates may run through a third protein. A yes stands for co-enrichment or nearness to the bait. Other partners may have been found.

The target of the assay is signal transducer and activator of transcription 3 (STAT3) (human (endogenous in MDA-MB-468, SUM159PT, SK-BR-3)) (UniProt P40763). In words: affinity purification with mass spectrometry; immunoprecipitation of endogenous STAT3 from MDA-MB-468 and SUM159PT lysates (50 mM Tris pH 7.5, 150 mM NaCl, 0.5% NP40), LC-MS/MS shotgun profiling of the eluted complexes.

As to “granulin (GRN) (from UniProt P28799 18-593)”, the binding result is “binds”.
